Measurements taken from US9649303B2, “Methods and treatment for allergies and inflammation associated with gastrointestinal diseases” (MASTCELL PHARMACEUTICALS, INC., priority 2008, dated 2017).
At least one compound was matched to its structure with a doubt left.

Experiments:
[1] = system: adult patients who have a history of GERD; experiment: GERD patients on omeprazole, ketotifen or both: GI symptoms and allergen-specific serum IgE (Example 4); format: in vivo, human
Experimental: The following study may be carried out to analyze the effectiveness of mast cell stabilizer in treating gastrointestinal disorders and/or as a prophylaxis against the development of allergy in patients at risk of developing sensitivity to such allergen, e.g., sensitivity to hazelnut, when exposed to it.
Sera of nine adult patients who have a history of GERD are collected. None of the patients report adverse reactions to inhalant or food allergens; however, IgE immunoblots are performed to screen their allergic state. Three patients from Group A are administered a proton pump inhibitor, e.g, omeprazole (Group A-1). Three patients from Group A are administered an oral dose of 0.5, 1, or 2 mg of ketotifen orally twice daily (Group A-2). […]
Serum IgE and Skin Tests in Patients: Sera are tested for allergen-specific IgE against hazelnut and inhalative allergens from tree pollen (eg, birch, hazel, and alder), grass pollen, weed pollen, molds, house dust mites, insect venoms, and animal dander. […] Additionally, total IgE is determined before and at the 3-mo time point. […]
Gastrointestinal Symptoms: Symptoms of gastrointestinal side effects such as GERD, nausea, abdominal pain, vomiting, gastritis and/or dyspepsia are recorded based on the severity and frequency of the symptoms. […]

[2] = system: patients who have a history of GERD, unresponsive to conventional proton pump inhibitors or antacids; experiment: GERD patients unresponsive to proton pump inhibitors or antacids: ketotifen vs omeprazole (Example 5); format: in vivo, human; settings: ketotifen 0.5 mg, 1 mg, 2 mg twice daily or omeprazole 1×20 mg/d
Experimental: To evaluate the effectiveness of ketotifen in patients who have a history of GERD, but are unresponsive to conventional proton pump inhibitors or antacids, two groups of patients are tested as similar to Example 4. One group is administered ketotifen at 0.5 mg, 1 mg, 2 mg, twice daily. The second group is treated with omeprazole, 1×20 mg/d. Sera IgE are evaluated before and after administration of ketotifen or omeprazole and gastrointestinal symptoms are recorded based on severity and frequency of symptoms.

For COc1ccc2[nH]c([S+]([O-])Cc3ncc(C)c(OC)c3C)nc2c1 (stereo not shown) [omeprazole], the “hazelnut-specific (and other allergen specific) IgE in blood sera” value ([1]; after onset of treatment, Groups A-1, A-2, A-3) was “blood sera show hazelnut-specific IgE after onset of treatment”, the GERD symptoms ([1]; omeprazole 1×20 mg/d (A-1), ketotifen 0.5, 1 or 2 mg orally twice daily (A-2), both (A-3)) was “improved GERD symptoms” and the GERD symptoms [2] was “no improvements or more severe GERD symptoms”. For the same compound, the “allergen specific IgE in blood sera” value [2] was “new or increased levels of allergen-specific IgE”.
